{
  "source": "patent US20220008500A1",
  "about": "“COMPOSITIONS AND METHODS FOR TREATING HEART FAILURE” (The George Washington University, priority 2017, published 2022)",
  "experiment": "Measurement of plasma OXT (Oxytocin ELISA Kit)",
  "assay_type": "in vivo, Sprague-Dawley rats",
  "settings": "CNO 1 mg/kg IP daily",
  "data": [
    {"smiles": "C[N+]1([O-])CCN(C2=Nc3cc(Cl)ccc3Nc3ccccc32)CC1", "note": "[CNO, clozapine N-oxide]", "values": [
      {"measurement": "Plasma OXT compared between groups", "setting": "TAC rats with DREADDs", "value": "not different between any group"},
      {"measurement": "Plasma OXT compared between groups", "setting": "rats without TAC (OXT NORM)", "value": "not different between any group"}
    ]}
  ]
}
